Here are results for seven molecules from the supplement of paper PMC10727501.

Structures are written as SMILES. The list shows a part of the results. This data set is noisy: repeats of one test often differ as much as different tests do.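 Researchers measured free-swimming zebrafish larvae's O-bend response probability to dark flashes (naive: first five; training: remaining flashes of four 60-flash blocks; test: later 60-flash block) and OMR turning toward alternating leftward/rightward LED motion. Six treated larvae were compared to sixty 0.1% DMSO controls, with |SSMD|≥2 marking a hit.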

Holding throughout (conditions): 10 µM; pre-incubation: 30-90 min
The test system of experiment [1] is Danio rerio larvae (5 dpf, TLF). Put plainly: OMR-Perf (SSMD vs DMSO vehicle); higher = higher than vehicle (e.g. higher dark-flash O-bend response probability, or better optomotor performance).
For experiment [2] the test system is unchanged. Put plainly: Prob-Test (SSMD vs DMSO vehicle); higher = higher than vehicle (e.g. higher dark-flash O-bend response probability, or better optomotor performance).
Experiment [3] shares this test system. Nature of the experiment: Prob-Naive (SSMD vs DMSO vehicle); higher = higher than vehicle (e.g. higher dark-flash O-bend response probability, or better optomotor performance).
For experiment [4] the test system is unchanged. Nature of the experiment: Prob-Train (SSMD vs DMSO vehicle); higher = higher than vehicle (e.g. higher dark-flash O-bend response probability, or better optomotor performance).

As to `CC(=O)Oc1cccc2c1C(=O)c1c(OC(C)=O)cc(C(=O)O)cc1C2=O` [Diacerein], in experiment [1], the OMR-Perf was -0.944. For the same molecule, the Prob-Test in experiment [2] is -0.38. In experiment [3], the Prob-Naive is -0.119. The Prob-Train in experiment [4] was -0.434.
For `Br.CCCC(CCC)C(=O)OC1C[C@H]2CC[C@@H](C1)[N+]2(C)C` (stereo partly drawn) [Anisotropine Methylbromide] the same measures were -0.0711, 0.208, 0.0912 and 0.39.
In experiment [1], `CN(C)[C@@H]1C(O)=C(C(N)=O)C(=O)[C@@]2(O)C(O)=C3C(=O)c4c(O)cccc4[C@@](C)(O)[C@H]3C[C@@H]12.Cl` [Tetracycline HCl] yielded an OMR-Perf of -0.392. For the same molecule, the Prob-Test in experiment [2] was -0.0987. This molecule yielded a Prob-Naive in experiment [3] of -0.683. This molecule also came in with a Prob-Train in experiment [4] of -0.719.
The matching figures for `CN1CCN(CCCN2c3ccccc3Sc3ccc(C(F)(F)F)cc32)CC1.Cl.Cl` [Trifluoperazine 2HCl]: -0.718, -2.09, -0.829 and -1.17.
As for `CCc1c(Cl)c(O)c(Cl)c(O)c1C(=O)O[C@H]1[C@H](O)[C@H](OC)[C@H](OC/C2=C\C=C\C[C@H](O)/C(C)=C\[C@H](CC)[C@H](O[C@@H]3OC(C)(C)[C@@H](OC(=O)C(C)C)[C@H](O)[C@H]3O)/C(C)=C/C(C)=C/C[C@H]([C@@H](C)O)OC2=O)O[C@@H]1C` [Fidaxomicin], the OMR-Perf in experiment [1] was -0.202. The Prob-Test in experiment [2] is -0.233. The Prob-Naive in experiment [3] is 0.338. In experiment [4], this molecule had a Prob-Train of -0.101.
For `CC(C)(Oc1ccc(Cl)cc1)C(=O)O` [Clofibric Acid] the same measures were -0.63, 0.38, -0.184 and 0.267.
For `Cc1cc(-c2ncc(CC(=O)Nc3ccc(-c4cnccn4)cn3)cc2C)ccn1` the same measures were -0.072, -0.00317, -0.0179 and -0.586.
